# Experimental data reported in patent US20210238187A1, “AZIRIDINE CONTAINING EPOTHILONE ANALOGS, METHODS OF SYNTHESIS, METHODS OF TREATMENT, AND DRUG CONJUGATES” (WILLIAM MARSH RICE UNIVERSITY, priority 2017, published 2021).
# Some results were stated once for a whole list of compounds, not compound by compound.
# System: MES SA, MES SA DX, and HEK 293T
# Assay: Cytotoxicity (IC50), summary over MES SA, MES SA DX and HEK 293T
# Type: cell-based, human
row,SMILES,IC50 against all three cell lines (summary of Table 4)
1,"CSc1nc(/C=C(\C)[C@@H]2C[C@@H]3N(CCO)[C@]3(C)CCC[C@H](C)[C@H](O)[C@@H](C)C(=O)C(C)(C)[C@@H](O)CC(=O)O2)co1 (stereo partly drawn) [compound 17, (1S,3S,7S,10R,11S,12S,16R)-7,11-Dihydroxy-17-(2-hydroxyethyl)-8,8,10,12,16-pentamethyl-3-{(1E)-1-[2-(methylsulfanyl)-1,3-oxazol-4-yl]prop-1-en-2-yl}-4-oxa-17-azabicyclo[14.1.0]-heptadecane-5,9-dione]",subnanomolar range
2,"CSc1nc(/C=C(\C)[C@@H]2C[C@@H]3N(CCOC(C)=O)[C@]3(C)CCC[C@H](C)[C@H](O)[C@@H](C)C(=O)C(C)(C)[C@@H](O)CC(=O)O2)cs1 (stereo partly drawn) [compound 36, 2-[(1S,3S,7S,10R,11S,12S,16R)-7,11-Dihydroxy-8,8,10,12,16-pentamethyl-3-{(1E)-1-[2-(methylsulfanyl)-1,3-thiazol-4-yl]prop-1-en-2-yl}-5,9-dioxo-4-oxa-17-azabicyclo[14.1.0]-heptadec-17-yl]ethyl acetate]",subnanomolar range
3,"C#CCCN1[C@H]2C[C@@H](/C(C)=C/c3csc(SC)n3)OC(=O)C[C@H](O)C(C)(C)C(=O)[C@H](C)[C@@H](O)[C@@H](C)CCC[C@]21C (stereo partly drawn) [compound 39, (1S,3S,7S,10R,11S,12S,16R)-17-(But-3-yn-1-yl)-7,11-dihydroxy-8,8,10,12,16-pentamethyl-3-{(1E)-1-[2-(methylsulfanyl)-1,3-thiazol-4-yl]prop-1-en-2-yl}-4-oxa-17-azabicyclo[14.1.0]heptadecane-5,9-dione]",subnanomolar range
